The name of at least one read-out is uncertain.
System: 293T cells
Test: mRNA translation efficiency: eGFP mRNA transfected into 293T cells, GFP fluorescence
Format: cell-based
Conditions: eGFP mRNA 2 µg per well, 24 h incubation after transfection

Structure (SMILES) | Relative fluorescence intensity (relative to Comparative Example 1)
COC1C(OP(=O)(O)OCC2OC(n3cnc4c(=O)[nH]c(N)nc43)C(O)C2O)C(COP(=O)(O)OP(=O)(O)OP(=O)(O)C2CC2C2OC(n3c[n+](C)c4c(=O)[nH]c(N)nc43)C(O)C2CNC(C)=O)OC1n1cnc2c(N)ncnc21 (centres unmarked) [Compound 10] | 2.16
CO[C@@H]1[C@H](OP(=O)(O)OC[C@H]2O[C@@H](n3cnc4c(=O)[nH]c(N)nc43)[C@H](O)[C@@H]2O)[C@@H](COP(O)(=S)OP(=O)(O)OP(=O)(O)C2CC2[C@H]2O[C@@H](n3c[n+](C)c4c(=O)[nH]c(N)nc43)[C@H](O)[C@@H]2O)O[C@H]1n1cnc2c(N)ncnc21 (some centres unmarked) [Compound 14] | 1.44

— patent EP4768492A1, “CAPPING COMPOUND, AND APPLICATION THEREOF IN MRNA CAPPING” (Jiangsu Synthgene Biotechnology Co., Ltd., priority 2023, dated 2025)
